Measured values from the supplement of paper PMC12823440, “Inhibitors supercharge kinase turnover through native proteolytic circuits” (Nature, 2025).
Structures can show the parent of a compound that is named as a salt. The list shows a part of the results. The calls rarely recur for the same compound in another form.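 In K562 cells expressing nanoluciferase-fused kinases, luminescence was recorded at 4 h intervals between 2 and 18 h, normalized as percent of control with DMSO at 100% and a positive control at 0%. A significant (2 sigma) signal drop marks a time point as decreased. The authors' rule for a hit is not shown and takes in more than the number of time points.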

By UniProt entry, the sequences of proteins in these tests, tags left out. Where a name states a change or a piece, a line headed by the entry shows the natural chain unless it says otherwise.
UniProt O14965: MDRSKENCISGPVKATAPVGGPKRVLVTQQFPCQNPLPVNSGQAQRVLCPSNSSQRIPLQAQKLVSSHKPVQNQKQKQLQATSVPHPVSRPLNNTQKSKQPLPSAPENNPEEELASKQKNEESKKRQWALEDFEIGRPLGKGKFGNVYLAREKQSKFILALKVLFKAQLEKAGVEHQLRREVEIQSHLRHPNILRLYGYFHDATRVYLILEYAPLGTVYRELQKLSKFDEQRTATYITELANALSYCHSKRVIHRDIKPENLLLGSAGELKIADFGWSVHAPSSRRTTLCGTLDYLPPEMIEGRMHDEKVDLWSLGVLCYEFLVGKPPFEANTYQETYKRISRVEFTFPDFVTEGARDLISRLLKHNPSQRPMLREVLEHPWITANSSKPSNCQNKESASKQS
UniProt Q96GD4, whole entry: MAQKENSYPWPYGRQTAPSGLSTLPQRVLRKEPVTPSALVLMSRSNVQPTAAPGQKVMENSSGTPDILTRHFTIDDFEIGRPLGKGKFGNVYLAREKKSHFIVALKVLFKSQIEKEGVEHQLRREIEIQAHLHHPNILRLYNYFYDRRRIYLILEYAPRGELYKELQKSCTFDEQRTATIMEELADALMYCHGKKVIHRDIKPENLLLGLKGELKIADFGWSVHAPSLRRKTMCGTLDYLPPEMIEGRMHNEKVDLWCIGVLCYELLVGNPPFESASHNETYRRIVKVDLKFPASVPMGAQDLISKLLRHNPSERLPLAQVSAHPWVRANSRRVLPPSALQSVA

Biological target: AURKA (UniProt O14965)
Test: kinase-Nluc reporter destabilization hit call (1 = scored as downregulated) (binary); higher = compound decreases kinase abundance
Settings: K562; 2-18 h

kinase-Nluc reporter destabilization hit call, inactive:
CC(CCc1ccccn1)(CCc1ccccn1)C(=O)c1ccccc1 (10 µM) 0
COc1cc(-c2cc(-c3cc(OC)c(OC)c(OC)c3)cc(C(F)P(=O)(OCOC(=O)C(C)(C)C)OCOC(=O)C(C)(C)C)c2)cc(OC)c1OC (stereo unspecified) [Stafia-1-dipivaloyloxymethyl ester] (2.5 µM) 0
CC1(N)CCN(c2cnc3c(-c4cccc(Cl)c4Cl)[nH]nc3n2)CC1 (2.5 µM) 0
CC(C)(O)[C@@H]1CC[C@](C)([C@H]2[C@@H](O)C[C@@]3(C)[C@@H]4C[C@H](O[C@@H]5O[C@H](CO)[C@@H](O)[C@H](O)[C@H]5O)[C@H]5C(C)(C)[C@@H](O[C@@H]6OC[C@@H](O)[C@H](O)[C@H]6O[C@@H]6O[C@H](CO)[C@@H](O)[C@H](O)[C@H]6O)CC[C@@]56C[C@@]46CC[C@]23C)O1 [Astragaloside VI] (10 µM) 0
Cc1nc(NC(=O)NCCc2nnn(CCF)n2)sc1-c1ccc(S(C)(=O)=O)c(F)c1 (10 µM) 0
CCN(C)C(=O)c1ccc2c(C(=Nc3ccc(CN4CCCCC4)cc3)c3ccccc3)c(O)[nH]c2c1 (2.5 µM) 0
CC(=O)Nc1nc(C)c(-c2nc(N3CCCC(O)C3)no2)s1 (stereo unspecified) (10 µM) 0
COc1c(O)cc2oc3cc(O)c(CC=C(C)C)c(O)c3c(=O)c2c1CCC(C)(C)O [Garcinone D] (2.5 µM) 0

Biological target: AURKB (UniProt Q96GD4)
Test: as above
Settings: K562; 2-18 h

kinase-Nluc reporter destabilization hit call, inactive:
O=S(=O)(c1cccc2cnccc12)N1CCNCC1 (10 µM) 0
COc1cc(C(C)=O)cc(OC)c1O [Acetosyringone] (10 µM) 0
CCOc1c([C@H](C)n2nc(C)c3c(N)ncnc32)cc(Cl)c(F)c1[C@@H]1CNC(=O)C1 [Parsaclisib (hydrochloride)] (10 µM) 0
CC[C@H](C)[C@H](NC(=O)[C@H](CCC(=O)O)NC(=O)[C@H](CCCN=C(N)N)NC(=O)[C@H](CCCN=C(N)N)NC(=O)[C@@H](N)CCCCN)C(=O)N[C@@H](CC(C)C)C(=O)N[C@@H](CO)C(=O)N[C@@H](CCCN=C(N)N)C(=O)N[C@@H](CCCN=C(N)N)C(=O)N1CCC[C@H]1C(=O)N[C@@H](CO)C(=O)N[C@@H](Cc1ccc(O)cc1)C(=O)N[C@@H](CCCN=C(N)N)C(=O)O [CREBtide] (10 µM) 0
O=C(O)CCc1ccc(NCc2cccc(Oc3ccccc3)c2)cc1 (10 µM) 0
O[C@H]1CC[C@H](Nc2ncc3nc(Nc4c(F)cc(F)cc4F)n([C@H]4CCOC4)c3n2)CC1 [Tanzisertib] (10 µM) 0
Oc1ccccc1C(=S)N1CCCC1 (10 µM) 0
CC[C@@H]1C(=O)N(C)c2cnc(Nc3ccc(C(=O)N[C@H]4CC[C@H](N5CCN(CC6CC6)CC5)CC4)cc3OC)nc2N1C(C)C [Volasertib] (2.5 µM) 0
C[C@@H]1O[C@@H](OC[C@H]2O[C@@H](Oc3cc(O)c4c(c3)O[C@H](c3ccc(O)cc3)CC4=O)[C@H](O)[C@@H](O)[C@@H]2O)[C@H](O)[C@H](O)[C@H]1O [Narirutin] (10 µM) 0
CCc1ccc(C(=O)COc2ccc(CC3SC(=O)NC3=O)cc2)nc1 (stereo unspecified) (10 µM) 0
Cc1ccc(-c2ccc3c(ccc4sc5c(c43)NC[C@@H](C)NC5=O)n2)cn1 (10 µM) 0
CC[C@H](Nc1ncnc2[nH]cnc12)c1oc2ccccc2c(=O)c1-c1cccc(F)c1 [Tenalisib] (10 µM) 0
CCCC(=O)Nc1nc2c(ncn2[C@@H]2O[C@@H]3COP(=O)(O)O[C@H]3[C@H]2OC(=O)CCC)c(=O)[nH]1 [Dibutyryl-cGMP (sodium)] (10 µM) 0
CC(C)c1cnn2c(NCc3ccccc3-n3cccn3)nc(OC3CCCNC3)nc12 (stereo unspecified) (2.5 µM) 0
OCCN(CCO)c1ccc(C(c2ccc(Cl)cc2)c2ccc(N(CCO)CCO)cc2)cc1 (10 µM) 0
CCCCNC(=N)NC(=N)N [Buformin (hydrochloride)] (2.5 µM) 0
Fc1c(Br)cccc1Nc1ncnc2cc3c(cc12)OCCO3 (2.5 µM) 0
Cc1cc(Nc2nc(N[C@@H](C)c3ncc(F)cn3)ncc2Cl)[nH]n1 (10 µM) 0
Cc1cc(Nc2cc(CN3CCOCC3)c3nc(C)c(Cc4ccc(Cl)cc4F)n3n2)n[nH]1 [Gandotinib] (2.5 µM) 0
COc1cc(N2CCC(N(C)C)CC2)ccc1Nc1ncc(Cl)c(Nc2ccccc2P(C)(C)=O)n1 (2.5 µM) 0
Nc1[nH]c(=O)nc2c1ncn2[C@@H]1O[C@H](CO)[C@@H](O)[C@H]1O [Crotonoside] (10 µM) 0
Cn1cc(-c2ccc(F)c(C(F)(F)F)c2)nc1C1CCN(c2ncnc3[nH]ncc23)CC1 (10 µM) 0
CCOc1ccccc1C=C1C(=O)Nc2ccccc21 (10 µM) 0
CC(C)(C)C(=O)N1N=CC[C@H]1c1ccccc1 (10 µM) 0
COc1ccc(CCNc2ncc3c(=O)n(-c4cccc(F)c4)c(=O)[nH]c3n2)cc1OC (2 µM) 0
Cc1ccc(-c2nn(C(C)(C)CNC(=O)c3ccncc3)c3ncnc(N)c23)cc1 (2.5 µM) 0
CNC(=O)c1ccc(-c2cnc3cnc(-c4ccccc4)cn23)cc1 (10 µM) 0
CCn1nc(C2CCN(C(=O)CCO)CC2)nc1-c1cnc(N)c(-c2nnc(C(C)(C)C)o2)n1 (10 µM) 0
CCCCCCCC/C=C\CCCCCCCC(=O)NCC(=O)O [N-Oleoyl glycine] (10 µM) 0
CC1(COc2ccc3c(c2)ncn3-c2ccc3cccc(N4CCC(N)CC4)c3n2)COC1 [Crenolanib] (2.5 µM) 0
CC(CCc1ccccn1)(CCc1ccccn1)C(=O)c1ccccc1 (10 µM) 0
COc1cc(-c2cc(-c3cc(OC)c(OC)c(OC)c3)cc(C(F)P(=O)(OCOC(=O)C(C)(C)C)OCOC(=O)C(C)(C)C)c2)cc(OC)c1OC (stereo unspecified) [Stafia-1-dipivaloyloxymethyl ester] (2.5 µM) 0
CC1(N)CCN(c2cnc3c(-c4cccc(Cl)c4Cl)[nH]nc3n2)CC1 (2.5 µM) 0
CC(C)(O)[C@@H]1CC[C@](C)([C@H]2[C@@H](O)C[C@@]3(C)[C@@H]4C[C@H](O[C@@H]5O[C@H](CO)[C@@H](O)[C@H](O)[C@H]5O)[C@H]5C(C)(C)[C@@H](O[C@@H]6OC[C@@H](O)[C@H](O)[C@H]6O[C@@H]6O[C@H](CO)[C@@H](O)[C@H](O)[C@H]6O)CC[C@@]56C[C@@]46CC[C@]23C)O1 [Astragaloside VI] (10 µM) 0
Cc1nc(NC(=O)NCCc2nnn(CCF)n2)sc1-c1ccc(S(C)(=O)=O)c(F)c1 (10 µM) 0
CCN(C)C(=O)c1ccc2c(C(=Nc3ccc(CN4CCCCC4)cc3)c3ccccc3)c(O)[nH]c2c1 (2.5 µM) 0
CC(=O)Nc1nc(C)c(-c2nc(N3CCCC(O)C3)no2)s1 (stereo unspecified) (10 µM) 0
COc1c(O)cc2oc3cc(O)c(CC=C(C)C)c(O)c3c(=O)c2c1CCC(C)(C)O [Garcinone D] (2.5 µM) 0
